The record followed here is US10919923B2, “Organic phosphorus-based compound, and flame retardant and flame-retardant product comprising the same” (TEIJIN LIMITED, priority 2016, dated 2021).

SMILES strings stand for the structures. Some compounds share one wording; it may come from a single statement.

Data set [1] is described as follows: Evaluation of appearance of coated sheet cloth. The arrangement: key: ◯: no agglomerates or good hue and appearance; Δ: a small number of agglomerates or moderate hue and appearance; X: a large number of agglomerates or bad hue and appearance. The following applies: coated polyester car sheet cloth.
Data set [2] is described as follows: Flame retardancy UL-94 vertical test, epoxy resin laminate sheet. Particulars: epoxy laminate sheet 1.6 mm, 30 parts by weight per 100 parts epoxy resin.
Data set [3] can be described thus: Evaluation of appearance of epoxy resin varnish dried on glass sheet. The following applies: 30 parts by weight. Also on record: key: ◯: no agglomerates or good hue and appearance; Δ: a small number of agglomerates or moderate hue and appearance; X: a large number of agglomerates or bad hue and appearance.
Data set [4] is described as follows: Flame retardancy UL-94 vertical test, impact-resistant polystyrene. The following applies: UL-94, 1.6 mm.
A short description of data set [5]: Evaluation of appearance of impact-resistant polystyrene molded plate. The arrangement: key: ◯: no agglomerates or good hue and appearance; Δ: a small number of agglomerates or moderate hue and appearance; X: a large number of agglomerates or bad hue and appearance. Particulars: HIPS molded plate.
Where [6] appears, read: 10 parts by weight per 100 parts HIPS.

Take `O=P1(CCc2ccccc2)OCC2(CO1)COP(=O)(CCc1ccccc1)OC2` (centres unmarked) [FR-3, 2,4,8,10-tetraoxa-3,9-diphosphaspiro[5.5]undecane,3,9-di(2-phenylethyl)-3,9-dioxide]: the Evaluation of appearance result in data set [1], in data set [3] and in data set [5] (10 parts by weight) was “◯” in each case. In addition, the Flame retardancy entry in data set [2] is “V-0 (When all the test samples self-extinguish within 10 seconds after the flame is removed, the total of ten burn times is no longer than 50 seconds, and samples do not drip flaming particles or these particles do not cause the ignition of cotton, flame retardancy is rated V-0)”. Moreover, the Flame retardancy evaluation result in data set [4] (setting [6]) was “V-2 (when all the test samples self-extinguish within 30 seconds after the flame is removed, the total of 10 burn times is no longer than 250 seconds, and the test samples drips flaming particles which cause the ignition of cotton, flame retardancy is rated V-2)”.
As for `O=P1(Cc2ccccc2)OCC2(CO1)COP(=O)(Cc1ccccc1)OC2` (single isomer, unassigned) [FR-5, 2,4,8,10-tetraoxa-3,9-diphosphaspiro[5.5]undecane, 3,9-dibenzyl-3,9-dioxide], the Evaluation of appearance entry in data set [1] is “X”; in data set [3] it was “X”; in data set [5] (10 parts by weight), “Δ”. Moreover, in data set [2], the Flame retardancy entry is “V-0 (When all the test samples self-extinguish within 10 seconds after the flame is removed, the total of ten burn times is no longer than 50 seconds, and samples do not drip flaming particles or these particles do not cause the ignition of cotton, flame retardancy is rated V-0)”. Also, in data set [4] (setting [6]), the Flame retardancy evaluation result is “V-2 (when all the test samples self-extinguish within 30 seconds after the flame is removed, the total of 10 burn times is no longer than 250 seconds, and the test samples drips flaming particles which cause the ignition of cotton, flame retardancy is rated V-2)”.
Consider `O=P1(C(c2ccccc2)c2ccccc2)OCC2(CO1)COP(=O)(C(c1ccccc1)c1ccccc1)OC2` (centres unmarked) [FR-4, 2,4,8,10-tetraoxa-3,9-diphosphaspiro[5.5]undecane, 3,9-bis(diphenylmethyl)-3,9-dioxide], for which the Evaluation of appearance result in data set [1], in data set [3] and in data set [5] (10 parts by weight) was “◯” in each case. The Flame retardancy result in data set [2] is “V-0 (When all the test samples self-extinguish within 10 seconds after the flame is removed, the total of ten burn times is no longer than 50 seconds, and samples do not drip flaming particles or these particles do not cause the ignition of cotton, flame retardancy is rated V-0)”. Also, the Flame retardancy evaluation result in data set [4] (setting [6]) is “V-2 (when all the test samples self-extinguish within 30 seconds after the flame is removed, the total of 10 burn times is no longer than 250 seconds, and the test samples drips flaming particles which cause the ignition of cotton, flame retardancy is rated V-2)”.
Turning to `O=P1(Cc2ccccc2)OCC2(CO1)COP(=O)(Cc1ccccc1)OC2` (single isomer, unassigned) [FR-6, 2,4,8,10-tetraoxa-3,9-diphosphaspiro[5.5]undecane,3,9-dibenzyl-3,9-dioxide], the figures for the Evaluation of appearance entry in data set [1], in data set [3] and in data set [5] (10 parts by weight) were “Δ”, “Δ” and “X”, respectively. Besides, in data set [2], the Flame retardancy entry was “V-1 (When all the test samples self-extinguish within 30 seconds after the flame is removed, the total of 10 burn times is no longer than 250 seconds, and the samples do not drip flaming particles or these particles do not cause the ignition of cotton, flame retardancy is rated V-1)”. In addition, the Flame retardancy evaluation result in data set [4] (setting [6]) is “V-2 (when all the test samples self-extinguish within 30 seconds after the flame is removed, the total of 10 burn times is no longer than 250 seconds, and the test samples drips flaming particles which cause the ignition of cotton, flame retardancy is rated V-2)”.
Regarding `O=P1(Cc2ccccc2)OCC2(CO1)COP(=O)(Cc1ccccc1)OC2` (single isomer, unassigned) [FR-1, 2,4,8,10-tetraoxa-3,9-diphosphaspiro[5.5]undecane,3,9-dibenzyl-3,9-dioxide], the Evaluation of appearance entry in data set [1], in data set [3] and in data set [5] (10 parts by weight) was “◯” throughout. Besides, the Flame retardancy entry in data set [2] was “V-0 (When all the test samples self-extinguish within 10 seconds after the flame is removed, the total of ten burn times is no longer than 50 seconds, and samples do not drip flaming particles or these particles do not cause the ignition of cotton, flame retardancy is rated V-0)”. The Flame retardancy evaluation result in data set [4] (setting [6]) was “V-2 (when all the test samples self-extinguish within 30 seconds after the flame is removed, the total of 10 burn times is no longer than 250 seconds, and the test samples drips flaming particles which cause the ignition of cotton, flame retardancy is rated V-2)”.
`Cc1cccc(C)c1OP(=O)(Oc1cccc(OP(=O)(Oc2c(C)cccc2C)Oc2c(C)cccc2C)c1)Oc1c(C)cccc1C` [PX-200]: in data set [4] (5 parts by weight per 100 parts HIPS), the Flame retardancy evaluation entry was “Not V”. Besides, in data set [5] (5 parts by weight), the Evaluation of appearance result is given as “X”.
Turning to `CC(c1ccccc1)P1(=O)OCC2(CO1)COP(=O)(C(C)c1ccccc1)OC2` (centres unmarked) [FR-2, 2,4,8,10-tetraoxa-3,9-diphosphaspiro[5.5]undecane,3,9-diα-methylbenzyl-3,9-dioxide], the Evaluation of appearance result in data set [1], in data set [3] and in data set [5] (10 parts by weight) was “◯” throughout. Besides, the Flame retardancy entry in data set [2] was “V-0 (When all the test samples self-extinguish within 10 seconds after the flame is removed, the total of ten burn times is no longer than 50 seconds, and samples do not drip flaming particles or these particles do not cause the ignition of cotton, flame retardancy is rated V-0)”. Besides, the Flame retardancy evaluation result in data set [4] (setting [6]) was “V-2 (when all the test samples self-extinguish within 30 seconds after the flame is removed, the total of 10 burn times is no longer than 250 seconds, and the test samples drips flaming particles which cause the ignition of cotton, flame retardancy is rated V-2)”.
